The test system of data set [1] is GST-C92 Myc/Max heterodimer. The experiment in a line: pull-down. Particulars: purified recombinant protein, protein details: GST on Myc C-terminal 92 aa (C92Myc), label: 32P end.
The subject of data set [2] is c-Myc (pM21 expression). In words: activity in cells. As to conditions: luciferase, NIH 3T3, single site; protein in cells.
Data set [3] deals with GST-C92 Myc/Max heterodimer. In words: EMSA. Particulars: purified recombinant protein; protein details: GST on Myc C-terminal 92 aa (C92Myc). In general terms: Mobility shift assays separate free from complexed probe on a gel.
In data set [4] the test system is c-Myc alone (no Max). In words: EMSA. Particulars: Myc alone, purified recombinant protein.
[5] abbreviates: Hinf I digest, glutathione sepharose, also EMSA (p109).

Experimental findings from US20010044102 are described below.

The exact form of at least one protein or probe is not confirmed. For some assays here: No signal at the amounts used counts as a negative.

As to “GAGTCGTGTTTGTGTTTGACCCGCGGGCGCCGGTGGCGGCGGCCGAGGCCGGTGTCGGCGGGGCGGGGCGGTCGCGGCGGAGGCAGAGGAAGAGGGAGCGGGAGCTCTGCGAGGCCGGGCGCCGCCATGGAACTAGGCCCGGAGCCCCCGCACCGCCGCCGCCTGCTCTTCGCCTGCAGCCCCCCTCCCGCGTCGCAGCCCGTCGTGAAGGCGCTATTTGGCGCTTCAGCCGCCGGGGGACTGTCGCCTGTCACCAACCTGACCGTCACTATGGACCAGCTGCAGGGTCTTGGCAGGTAAGGAGAGACCGCGGGCGGTGCTCCGGGCCCCTGGCCTCGGTGTCGGCCTTGGAGAGTTCAGGCCAGGAAACGGACCGGGAGAAGGGCGAGACCCGTCCGTCCGGGTTCGCCGCTCGGGGACAGCCGGGCTAGGGCCTGCCATGTGCACCCCGCCCGGGCGGAATGTTGGCCGGGAGAGGCCGTCGGGACTTCCAGGGGAAGAGGTGGAGATCCTTGGGCCTAAGCCCGACCAGGCCCCCC (double strand) [cdc25A F1 fragment]”, the binding result in data set [1] (setting [5]) is on record as “binds”. The “activity on this sequence” value in data set [2] is listed as “active”.
“GGGCCTGCCATGTGCACCCCGCCCGGG (double strand) [MB1 (A1) oligo]”: the results for the binding result in data set [3] and in data set [4] (no Max) were “binds” and “no binding”, respectively.
Turning to “TGTGCGGCCACGTGTCGCGAGGCCCCG (double strand) [cdc25B Hinf I fragment with Myc site B1]”, the binding result in data set [1] (single cdc25B fragment bound, only site region sequence listed) is “binds”.
As to “GAGTCGGGATGAAAGTTGAACAGGACACTTTCTGCTTTTCAGAAGTTGGGAAACGCACAAGACATGTGCTTAGCAAACGGGATGCCAGAGATTGAAGGGAAAGTAGCTCTTCCGCGGGAAACACCGTGGGATGCATTTTTTGCTATCAGGAAAAGCCCAGGAAGCTTTCTGAAAGTTGGGTAAAAAGACCTGGCCTTAGGAAAGCAGCAGAGTGGACATCAGGAATGTGCACAGGGCGAGGGACTGAGATGATTTTACATAAACGCCAGGAAAGGAAATGCCATGGTCCTTTGTTGAGAAGGAACAAAGATCACAGCAAACGAAGATCCTGAGGATGGTTTAGAAAAGGGTGAAAGTGAGTGCCTAGAAGAGCCTGATTTTCCCGCGGGGGTAGATT (double strand) [cdc25A F2 fragment]”, in data set [1] (setting [5]), the binding result is given as “binds”. The “activity on this sequence” value in data set [2] is “active”.
For the sequence “ACTACAGACACGTGCCACCACACCCAA (double strand) [MB3 (A3) oligo]”, the binding result in data set [3] is recorded as “binds”; in data set [4] (similar results stated for MB3), “no binding”.
Consider “GCACAAGACATGTGCTTAGCAAACGGG (double strand) [MB2 (A2) oligo]”, for which the binding result is reported as “binds” in data set [3] and “no binding” in data set [4] (similar results stated for MB2).
